Assay results as given in PubChem BioAssay AID1445 (SRMLSC, 2008).
Out of some 220,000 compounds screened, about 910 (0.41%) were called active. The inconclusive results got no clear call from the source; some entries with a clear call stand among them for comparison.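 How the source made its calls: active means primary inhibition above the hit cutoff, then over 50% inhibition at one or more dose response concentrations (cut at about 23% in these data, passing the limit was not always enough); inconclusive means conflicting primary data, or primary hits not chosen for dose response; inactive means low primary inhibition, or under 50% at every dose.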

Sequences of proteins named here, by UniProt entry; tags and fusion partners are left off. A change or cut given only in a name is not applied to a line headed by its entry.
UniProt O96935: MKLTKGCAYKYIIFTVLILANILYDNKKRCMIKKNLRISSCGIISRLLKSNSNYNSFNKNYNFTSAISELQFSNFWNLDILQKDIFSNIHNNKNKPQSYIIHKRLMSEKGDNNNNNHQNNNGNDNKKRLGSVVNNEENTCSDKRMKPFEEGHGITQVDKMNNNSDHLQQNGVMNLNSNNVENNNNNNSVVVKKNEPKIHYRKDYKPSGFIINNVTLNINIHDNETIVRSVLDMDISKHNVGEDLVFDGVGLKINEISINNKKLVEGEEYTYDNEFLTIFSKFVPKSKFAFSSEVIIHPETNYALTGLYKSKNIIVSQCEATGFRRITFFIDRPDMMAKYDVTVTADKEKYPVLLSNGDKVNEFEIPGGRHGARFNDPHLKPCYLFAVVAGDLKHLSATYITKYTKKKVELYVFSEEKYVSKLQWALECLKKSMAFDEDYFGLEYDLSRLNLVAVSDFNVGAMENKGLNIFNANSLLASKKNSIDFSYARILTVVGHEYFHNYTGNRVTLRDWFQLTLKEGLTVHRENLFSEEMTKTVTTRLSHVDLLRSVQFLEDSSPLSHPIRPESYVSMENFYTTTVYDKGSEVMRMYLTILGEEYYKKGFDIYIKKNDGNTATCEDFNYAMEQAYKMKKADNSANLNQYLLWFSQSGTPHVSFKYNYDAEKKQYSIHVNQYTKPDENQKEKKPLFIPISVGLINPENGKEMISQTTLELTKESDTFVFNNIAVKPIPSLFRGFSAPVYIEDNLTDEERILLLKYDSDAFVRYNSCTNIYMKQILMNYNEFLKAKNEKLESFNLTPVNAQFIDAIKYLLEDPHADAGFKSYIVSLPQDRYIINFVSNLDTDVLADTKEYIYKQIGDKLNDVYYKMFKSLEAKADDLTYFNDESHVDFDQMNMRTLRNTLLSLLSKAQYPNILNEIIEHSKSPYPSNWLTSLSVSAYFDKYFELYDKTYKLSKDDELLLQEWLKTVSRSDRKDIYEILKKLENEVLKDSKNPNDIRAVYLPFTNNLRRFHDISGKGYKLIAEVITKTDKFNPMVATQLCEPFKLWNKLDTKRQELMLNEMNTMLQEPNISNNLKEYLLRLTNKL

molecular target: Aminopeptidase N (Plasmodium falciparum (isolate 3D7)) (UniProt O96935); assay: P. falciparum M1AAP inhibitors, biochemical, fluorogenic H-Leu-NHMec substrate, 1536-well (AID 1445); settings: recombinant M1AAP, H-Leu-NHMec fluorogenic kinetic assay; at 30 µM, hits give high values unless noted;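 further: plate controls were DMSO full reaction for no effect and no enzyme background for full effect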

| SMILES | inhibition |
| --- | --- |
| CCOC(=O)C1CCCN(C(=O)c2cc3cc(Br)ccc3oc2=O)C1 (stereo unspecified) | inconclusive: 23.3% |
| N#Cc1c(N)sc(=S)c2c1CCCCC2 | active: 23.8% |
| Cc1cc(C)nc(N(C#N)CCOc2ccc(Cl)cc2)n1 | inconclusive: 26.3% |
| Cc1ccc(OCc2ccc(C(=O)Nc3nc4ccccc4n3Cc3ccccc3)o2)c([N+](=O)[O-])c1 | inactive: 4.13% |
| CC1(CC(=O)N/N=C/c2cc(Br)c(O)cc2O)OCCO1 | active: 31.5% |
| O=S(=O)(Nc1cccc(S(=O)(=O)N2CCCCCC2)c1)c1ccccc1 | inactive: -2% |
| O=C(NCc1cccs1)C1CCCN(S(=O)(=O)c2cccc3cccnc23)C1 (stereo unspecified) | inactive: 21.9% |
| O=C(Cc1ccccc1)Nn1c(-c2ccccc2)nc2ccccc2c1=O | inactive: 3.49% |
| COc1cccc(/C=N\NC(=O)C2C(=O)NCC2c2ccccc2)c1O (stereo unspecified) | inconclusive: 41.8% |
| c1coc(-c2nc3nc4ccccc4nc3n2CC2CCCO2)c1 (stereo unspecified) | active: 26% |
| COc1cc(OC)cc(N2CC(C)(C)C2=O)c1 | inconclusive: 25.4% |
| COc1ccccc1-n1c(C)cc(/C=C2/C(=N)N3C(=NC2=O)SN=C3S(C)(=O)=O)c1C | inactive: 17.9% |
| Cc1ccc(C)c(CN2CCCN(C(=O)Cn3ncc4c3-c3ccccc3OC4)C2)c1 | inactive: 3.24% |
| COc1ccccc1NS(=O)(=O)c1ccc(Cl)c(NC(=O)CN2C(=O)c3ccccc3C2=O)c1 | inactive: 11.8% |
| COc1cc2c(C#N)c(N3CCc4ccccc4C3)nc(N)c2c(N)n1 | inconclusive: 24% |
| Cc1nc(NCc2ccco2)c2oc3ccccc3c2n1 | active: 25.6% |
| COc1ccc(C2CC(c3ccccc3)=NN2c2ccc(S(N)(=O)=O)cc2)cc1 (stereo unspecified) | inactive: 22.3% |
| O=C(CSc1nccn1-c1cccc(Cl)c1)Nc1ccc2c(c1)OCCO2 | active: 24.5% |
| Cc1cc(C)c2c(-n3cccc3)c(C(=O)NNS(=O)(=O)c3ccc(Br)cc3)sc2n1 | inconclusive: 70.5% |
| COC(=O)C1=C(C(=O)OC)C(c2cc(Br)ccc2O)c2sc(=O)[nH]c2S1 (stereo unspecified) | inconclusive: 34.6% |
| Cc1ccc(-n2c3c(cc(C(=O)NC4CCSC4=O)c2=O)C(=O)CC(C)(C)C3)cc1 (stereo unspecified) | inconclusive: 23.2% |
| Oc1ccc2ccccc2c1CNc1cnc2ccccc2c1 | active: 24.4% |

Six compounds drawn at random from those above:

| SMILES | inhibition |
| --- | --- |
| COc1ccc(C2CC(c3ccccc3)=NN2c2ccc(S(N)(=O)=O)cc2)cc1 (stereo unspecified) | inactive: 22.3% |
| COc1cccc(/C=N\NC(=O)C2C(=O)NCC2c2ccccc2)c1O (stereo unspecified) | inconclusive: 41.8% |
| Oc1ccc2ccccc2c1CNc1cnc2ccccc2c1 | active: 24.4% |
| Cc1ccc(C)c(CN2CCCN(C(=O)Cn3ncc4c3-c3ccccc3OC4)C2)c1 | inactive: 3.24% |
| O=C(NCc1cccs1)C1CCCN(S(=O)(=O)c2cccc3cccnc23)C1 (stereo unspecified) | inactive: 21.9% |
| COc1ccccc1NS(=O)(=O)c1ccc(Cl)c(NC(=O)CN2C(=O)c3ccccc3C2=O)c1 | inactive: 11.8% |

Additional records:

| SMILES | inhibition |
| --- | --- |
| Cc1cc(C)n(/N=C/c2c[nH]c3ccccc23)c(=O)c1C#N | inactive: 5.27% |
| CCOc1ccccc1Oc1c(C)oc2c(CN3CCN(CCO)CC3)c(O)ccc2c1=O | inconclusive: 23.4% |
| CC(C)N(C(=O)CSc1nnc(Cc2ccc3c(c2)OCO3)n1C)C(C)C | inactive: -1.85% |
| CCOC(=O)C1(C(F)(F)F)N=C(C(F)(F)F)Nc2cc(C)c(C)cc21 (stereo unspecified) | inactive: 1.48% |
| CCc1oc2ccccc2c1C(=O)c1cc(Br)c(O)c(Br)c1 | inconclusive: 36.4% |
| Cc1ccc(-c2cc(C(=O)Nc3nn[nH]n3)c3ccccc3n2)cc1 | inconclusive: 35.9% |
| Cc1cccn2c(=O)c3cc(C#N)c(=NC(=O)c4ccncc4)n(CCCOC(C)C)c3nc12 | inconclusive: 34% |
| O=C(O)Cc1ccc(-c2ccccc2-c2ccccc2)cc1 | inactive: 6.14% |
| CC(C)(C)c1ccc(C(=O)NC(Cc2ccccc2)C(=O)O)cc1 (stereo unspecified) | inconclusive: 26.5% |
| CCN(C(=O)CSc1nnc(-c2ccncc2)n1Cc1ccccc1)C1CCS(=O)(=O)C1 (stereo unspecified) | inconclusive: 25.2% |
| Cc1cc(C(=O)N/N=C/c2cc(Br)ccc2OC(=O)c2ccc(Br)cc2)n[nH]1 | inconclusive: 27.1% |
| O=C1C2C3C=CC(C4CC34)C2C(=O)N1/N=C/c1ccc(-c2ccc([N+](=O)[O-])cc2)o1 (stereo unspecified) | inactive: 7.6% |
| CCOc1cc(C2C3=C(CCCC3=O)N(CCC(=O)O)C3=C2C(=O)CCC3)ccc1OS(=O)(=O)c1ccc(C)cc1 | inconclusive: 25.1% |
| COc1ccc(C2N(c3ccc(Cl)cc3)N=C(C(C)=O)N(C)N2C(C)=O)cc1 (stereo unspecified) | inconclusive: 27.4% |
| CC(=O)c1ccc(-c2nc3ccccc3n2C)o1 | inconclusive: 27.2% |
| COc1cccc(C(=O)Oc2cc(N)n(S(=O)(=O)c3ccc(C)cc3)n2)c1OC | inconclusive: 25% |
| O=C1ON=C(c2ccccc2)/C1=C/c1ccc(OS(=O)(=O)c2ccccc2)cc1 | inconclusive: 28.7% |
| CC1(C)Nc2ccccc2C(=O)N1NC(=O)c1ccccc1 | inactive: 22.7% |
| C=CCn1c(-c2ccc(F)cc2)n[nH]c1=S | inactive: 4.9% |
| NC(=O)C[n+]1cccc2ccccc21 | inconclusive: 35.4% |
| Cc1cc(NC(=O)c2ccccc2)n(-c2ccccc2)n1 | inconclusive: 24.9% |
| O=C(/C=C/c1ccccc1)N1CCCN(C(=O)/C=C/c2ccccc2)CC1 | inconclusive: 36.8% |

Shown bar-delimited: part of the list above
SMILES | inhibition
CC1(C)Nc2ccccc2C(=O)N1NC(=O)c1ccccc1 | inactive: 22.7%
Cc1cc(NC(=O)c2ccccc2)n(-c2ccccc2)n1 | inconclusive: 24.9%

(more compounds)

| SMILES | inhibition |
| --- | --- |
| Nc1c(C(=O)N2CCOCC2)sc(=S)n1-c1ccccc1 | active: 24.9% |
| C=CCn1c(SCc2cc([N+](=O)[O-])cc3c2OCOC3)nc2cc(C(=O)O)ccc2c1=O | inconclusive: 26.5% |
| CCOC(=O)CNNC(=O)Nc1ccc(Cl)c(Cl)c1 | inactive: -5.41% |
| CCOC(=O)CSc1nnc(CNC(=O)c2cccs2)n1CCc1ccccc1 | inactive: -4.29% |
| COc1ccccc1NS(=O)(=O)c1cccc(N2CC(O)=C(c3ccccc3)C2=N)c1 | inactive: 9.55% |
| COc1ccc2[nH]c(=O)c(CN(C3CCCCC3)C(c3nnnn3Cc3ccco3)C(C)C)cc2c1 (stereo unspecified) | active: 23.7% |
| CNC(=O)Nc1cccc(-c2ccnc(C)n2)c1 | inactive: 0.72% |
| COc1ccc(NCc2cc3cc(OC)ccc3[nH]c2=O)cc1 | inconclusive: 25.3% |
| CN=C(N)NC(=O)Nc1c(C)cccc1C | inconclusive: 24.4% |
| COc1ccc(OCC(=O)N2CCN(c3cccc(Cl)c3)CC2)cc1 | inconclusive: 23.7% |
| Cc1ccc(C(=O)N/N=C(/CC(=O)c2cccs2)C(F)(F)F)cc1 | inconclusive: 23.5% |
| Cc1cccc(Nc2ccc([N+](=O)[O-])cc2C(=O)O)c1 | inconclusive: 26.4% |
| O=C(O)C1Sc2[nH]c(=O)sc2C2c3cc(Br)ccc3OC(=O)C12 (stereo unspecified) | inconclusive: 23.5% |
| Cc1cc2nc3c(nc2cc1C)C(O)=C3O | inactive: 20.8% |
| COc1ccc([N+](=O)[O-])cc1/C=N/NC(=O)/C(=C\c1cccs1)NC(=O)c1ccccc1 | inactive: 4.13% |
| Cc1ccc(S(=O)(=O)Oc2ccc(/C=C(/NC(=O)c3ccccc3)C(=O)NCCCC(=O)O)cc2)cc1 | inconclusive: 24.4% |
| Cn1nccc1NC(=O)CC(CC(=O)O)c1ccccc1 (stereo unspecified) | inconclusive: 24% |
| CC1=Nc2nc(N3CCCCC3)c(C#N)c3c4c(nc(c23)N1)N(c1ccc(C(C)C)cc1)C(=O)C4 | inconclusive: 23.4% |
| CCN(CC)c1ccc2cc(C(N)=O)/c(=N\NC(=O)c3ccncc3)oc2c1 | inconclusive: 28.6% |
| COc1cc(C2CC(=O)Oc3c2c(=O)n(C)c2ccccc32)ccc1O (stereo unspecified) | inconclusive: 27.6% |
| COCCn1c(-c2cccs2)nc2nc3ccccc3nc21 | inconclusive: 26.1% |
| Cc1ccc(-c2[nH]c(-c3ccc(C(=O)O)cc3)nc2-c2ccccc2)cc1 | inconclusive: 24.6% |

| SMILES | inhibition |
| --- | --- |
| Nc1ccc(-c2cc(N)n(-c3ccccc3)n2)cc1 | inconclusive: 26.1% |
| Cc1ccc2nc(N3C(=O)C(O)=C(C(=O)c4ccco4)C3c3cccs3)sc2c1 (stereo unspecified) | active: 27.4% |
| CC(=O)c1cccc(NC(=O)C2CC(=O)N(c3cccc(C)c3C)C2)c1 (stereo unspecified) | inactive: -2.91% |
| CC(C)COC(=O)N(C)c1ccc(C(O)(C(F)(F)F)C(F)(F)F)cc1 | inactive: 11.6% |
| O=S(=O)(Nc1nc2ccccc2nc1Nc1ccc2c(c1)OCCO2)c1cccs1 | active: 47.2% |
| O=c1cc(-c2ccccc2Cl)oc2c([N+](=O)[O-])c(O)cc(O)c12 | inconclusive: 23.4% |
| COc1cccc(/C=C2\SC(=S)N(C(Cc3ccccc3)C(=O)O)C2=O)c1 (stereo unspecified) | inconclusive: 23.6% |
| O=C(N/N=C\c1cc(Br)ccc1O)c1ccc(S(=O)(=O)N2CCCCC2)cc1 | inconclusive: 25.3% |
| O=C(Cn1nnc(-c2ccc3c(c2)OCO3)n1)N1CCOCC1 | inactive: 0.39% |
| NC(=O)c1cc2c(s1)-c1cc(Cl)ccc1SC2 | inconclusive: 23.6% |
| CCOC(=O)Cn1nc(C)c(NC(=O)COc2ccccc2[N+](=O)[O-])c1C | inactive: 0.47% |
| [2H]c1c([2H])c([2H])c(-c2nc(N3CCCCCC3)sc2C(=O)c2ccccc2)c([2H])c1[2H] | inactive: 6.9% |
| C=CCOC(=O)c1[nH]c2c(c1C)C(=O)CC(c1ccco1)C2 (stereo unspecified) | inactive: 9.27% |
| CCOc1ccc(S(=O)(=O)Nc2ccc(O)c(Sc3ncn[nH]3)c2)cc1 | inconclusive: 26.4% |
| O=C(N/N=C/c1ccc(OCC(=O)N2CCCCC2)cc1)c1ccccc1O | inconclusive: 24.3% |
| CCc1nn(CCCC(=O)N2CCc3ccccc3C2)c(=O)c2cc3occc3n12 | active: 23.8% |
| Cn1nc(C(F)(F)F)c(C(=O)Nc2ccc(F)cc2F)c1Sc1ccc(Cl)cc1 | inconclusive: 28.3% |
| O=C(Nc1cccc(F)c1)/C(=C\c1ccco1)NC(=O)c1cccs1 | inconclusive: 24.9% |
| O=C(c1ccco1)N1CCN(C(c2ccccc2Cl)c2nnnn2Cc2ccco2)CC1 (stereo unspecified) | inactive: 2.33% |
| COc1cc(/C=C(/C#N)c2ccc(F)cc2)ccc1OCc1ccc(C(=O)O)o1 | active: 27.4% |
| COc1ccc(OCCSc2nnc(CC(=O)Nc3cccc(Cl)c3Cl)n2C)cc1 | active: 23.6% |
| O=S(=O)(NCc1ccccn1)c1cccc2nsnc12 | inactive: 3.36% |

| SMILES | inhibition |
| --- | --- |
| COc1ccc(C2NC(=S)NC3=C2CCc2ccccc23)cc1OC (stereo unspecified) | inconclusive: 26.5% |
| Cc1cc(N=NC(=O)c2ccccc2O)c2ccccc2c1O | inconclusive: 26.5% |
| Cc1cc(NC(=O)c2ccccc2)ncc1NC(=O)c1ccco1 | inactive: 5.34% |
| CCOC(=O)c1c(NC(=O)CN2C(=O)NC3(CCC(CC)CC3)C2=O)sc(C)c1-c1ccc(C)cc1 (stereo unspecified) | inconclusive: 25.9% |
| CCN(CC)c1ccc2c(C)c(CN3CCOCC3)c(=O)oc2c1 | inactive: 7.04% |
| C=CCN1C(=O)/C(=C2/Sc3ccccc3N2C)SC1=Nc1c(C)n[nH]c1C | inconclusive: 26.3% |
| CC1(C)CC(N2CCOCC2)=CC(=[N+]2CCOCC2)C1 | inconclusive: 28.1% |
| O=C(Nc1cccc(C(F)(F)F)c1)c1ccc2nc(-c3ccco3)c(-c3ccco3)nc2c1 | active: 23.9% |
| CC(N=Cc1c(O)c2ccccc2oc1=O)C(=O)O (stereo unspecified) | inconclusive: 27.4% |
| Cc1nc2ccccc2c2oc(C(=O)N3CCN(C(=O)c4ccco4)CC3)cc12 | active: 25.5% |
| O=Cc1ccccc1OCCOc1ccc([N+](=O)[O-])cc1 | inconclusive: 24.1% |
| CCCC1=[N+](CC)CCn2c(C)ccc21 | active: 47.2% |
| Cc1ccc(-c2cc(C(=O)Nc3nn[nH]n3)c3ccccc3n2)c(C)c1 | inconclusive: 27.9% |
| O=C1CC(=O)c2c1cccc2[N+](=O)[O-] | inconclusive: 36.7% |
| COC(=O)CCP(=O)(O)Cc1ccccc1CP(=O)(O)CCC(=O)OC | active: 25.9% |
| Cc1ccc(CSC2=Nc3ccccc3C3=NC(CC(=O)NCc4ccco4)C(=O)N23)cc1 (stereo unspecified) | active: 25.5% |
| Cc1ccc2c(c1)-c1c(cnn1CC(=O)N(Cc1ccco1)C1CCCCC1)CO2 | inactive: 4.81% |
| N#CCC(CNc1ncc(C(F)(F)F)cc1Cl)OC(=O)c1cccc(C(F)(F)F)c1 (stereo unspecified) | inconclusive: 23.9% |
